From the supplement of paper PMC12067093, “Discovery and optimisation of a covalent ligand for TRIM25 and its application to targeted protein ubiquitination” (Chemical Science, 2025)
Some of the results follow.

Sequences of proteins named here, by UniProt entry; tags and fusion partners are left off. A change or cut given only in a name is not applied to a line headed by its entry.
UniProt Q05655: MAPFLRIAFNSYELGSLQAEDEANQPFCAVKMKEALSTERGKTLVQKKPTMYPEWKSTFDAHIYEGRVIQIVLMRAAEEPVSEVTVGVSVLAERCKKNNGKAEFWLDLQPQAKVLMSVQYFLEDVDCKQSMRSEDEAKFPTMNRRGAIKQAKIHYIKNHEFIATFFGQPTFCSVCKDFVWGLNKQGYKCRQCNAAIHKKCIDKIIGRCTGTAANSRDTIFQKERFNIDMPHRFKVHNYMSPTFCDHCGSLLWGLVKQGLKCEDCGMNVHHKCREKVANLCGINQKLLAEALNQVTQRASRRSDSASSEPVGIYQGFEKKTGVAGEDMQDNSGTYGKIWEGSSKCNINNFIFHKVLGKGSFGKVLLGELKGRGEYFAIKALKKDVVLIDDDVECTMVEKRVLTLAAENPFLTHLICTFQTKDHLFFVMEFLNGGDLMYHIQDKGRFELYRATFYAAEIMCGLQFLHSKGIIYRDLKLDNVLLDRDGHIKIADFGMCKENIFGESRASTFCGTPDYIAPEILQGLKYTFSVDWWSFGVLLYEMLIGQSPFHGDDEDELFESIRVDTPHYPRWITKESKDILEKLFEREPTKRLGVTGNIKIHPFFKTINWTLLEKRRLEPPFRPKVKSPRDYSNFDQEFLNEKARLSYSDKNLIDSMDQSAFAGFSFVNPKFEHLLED
UniProt P05771, whole entry, looked up: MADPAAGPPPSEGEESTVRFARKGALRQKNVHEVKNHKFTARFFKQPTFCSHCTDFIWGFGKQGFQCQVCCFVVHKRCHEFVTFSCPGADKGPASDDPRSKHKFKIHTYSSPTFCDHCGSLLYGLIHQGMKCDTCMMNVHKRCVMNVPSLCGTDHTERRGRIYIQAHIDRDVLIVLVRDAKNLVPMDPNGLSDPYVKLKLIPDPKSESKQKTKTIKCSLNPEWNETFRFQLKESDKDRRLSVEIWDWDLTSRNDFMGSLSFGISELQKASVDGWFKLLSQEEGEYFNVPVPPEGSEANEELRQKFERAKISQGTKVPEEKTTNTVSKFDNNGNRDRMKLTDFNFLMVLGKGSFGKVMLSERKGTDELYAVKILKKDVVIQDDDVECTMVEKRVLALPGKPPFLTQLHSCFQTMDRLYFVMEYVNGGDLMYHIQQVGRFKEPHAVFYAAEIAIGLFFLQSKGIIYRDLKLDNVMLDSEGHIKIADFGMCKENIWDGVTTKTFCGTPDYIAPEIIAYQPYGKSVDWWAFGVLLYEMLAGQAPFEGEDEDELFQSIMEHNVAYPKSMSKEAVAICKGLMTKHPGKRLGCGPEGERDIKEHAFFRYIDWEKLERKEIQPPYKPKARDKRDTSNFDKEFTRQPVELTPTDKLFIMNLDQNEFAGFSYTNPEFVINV
UniProt Q13131: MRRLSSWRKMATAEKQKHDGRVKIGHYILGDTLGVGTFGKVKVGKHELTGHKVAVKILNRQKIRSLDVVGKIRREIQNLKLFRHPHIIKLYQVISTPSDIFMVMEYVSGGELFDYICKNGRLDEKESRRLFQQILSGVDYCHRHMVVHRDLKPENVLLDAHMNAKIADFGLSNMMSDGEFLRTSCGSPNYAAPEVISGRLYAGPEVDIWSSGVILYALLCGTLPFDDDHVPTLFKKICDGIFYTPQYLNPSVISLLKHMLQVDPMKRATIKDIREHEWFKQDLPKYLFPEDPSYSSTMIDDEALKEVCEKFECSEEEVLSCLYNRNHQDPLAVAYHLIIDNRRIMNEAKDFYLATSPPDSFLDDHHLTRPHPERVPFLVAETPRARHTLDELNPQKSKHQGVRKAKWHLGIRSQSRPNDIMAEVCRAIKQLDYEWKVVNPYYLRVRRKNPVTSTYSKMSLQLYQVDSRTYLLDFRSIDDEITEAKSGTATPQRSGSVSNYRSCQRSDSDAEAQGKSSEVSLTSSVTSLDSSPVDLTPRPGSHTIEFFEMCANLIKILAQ
UniProt O60678: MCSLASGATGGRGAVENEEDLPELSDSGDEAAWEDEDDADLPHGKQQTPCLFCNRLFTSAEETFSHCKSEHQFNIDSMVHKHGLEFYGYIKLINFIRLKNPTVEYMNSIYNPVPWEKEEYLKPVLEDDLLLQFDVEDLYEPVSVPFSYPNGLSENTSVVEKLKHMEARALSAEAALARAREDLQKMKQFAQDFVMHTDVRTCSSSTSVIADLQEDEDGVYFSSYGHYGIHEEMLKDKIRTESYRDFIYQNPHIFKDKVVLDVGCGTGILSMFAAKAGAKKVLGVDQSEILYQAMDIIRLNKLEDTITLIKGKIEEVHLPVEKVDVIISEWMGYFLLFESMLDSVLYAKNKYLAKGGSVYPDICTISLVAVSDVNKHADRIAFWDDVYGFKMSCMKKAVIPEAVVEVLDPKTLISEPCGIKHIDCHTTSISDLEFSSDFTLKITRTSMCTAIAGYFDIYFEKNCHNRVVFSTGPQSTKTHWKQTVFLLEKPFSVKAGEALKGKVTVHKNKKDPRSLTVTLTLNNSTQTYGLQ
UniProt O94906: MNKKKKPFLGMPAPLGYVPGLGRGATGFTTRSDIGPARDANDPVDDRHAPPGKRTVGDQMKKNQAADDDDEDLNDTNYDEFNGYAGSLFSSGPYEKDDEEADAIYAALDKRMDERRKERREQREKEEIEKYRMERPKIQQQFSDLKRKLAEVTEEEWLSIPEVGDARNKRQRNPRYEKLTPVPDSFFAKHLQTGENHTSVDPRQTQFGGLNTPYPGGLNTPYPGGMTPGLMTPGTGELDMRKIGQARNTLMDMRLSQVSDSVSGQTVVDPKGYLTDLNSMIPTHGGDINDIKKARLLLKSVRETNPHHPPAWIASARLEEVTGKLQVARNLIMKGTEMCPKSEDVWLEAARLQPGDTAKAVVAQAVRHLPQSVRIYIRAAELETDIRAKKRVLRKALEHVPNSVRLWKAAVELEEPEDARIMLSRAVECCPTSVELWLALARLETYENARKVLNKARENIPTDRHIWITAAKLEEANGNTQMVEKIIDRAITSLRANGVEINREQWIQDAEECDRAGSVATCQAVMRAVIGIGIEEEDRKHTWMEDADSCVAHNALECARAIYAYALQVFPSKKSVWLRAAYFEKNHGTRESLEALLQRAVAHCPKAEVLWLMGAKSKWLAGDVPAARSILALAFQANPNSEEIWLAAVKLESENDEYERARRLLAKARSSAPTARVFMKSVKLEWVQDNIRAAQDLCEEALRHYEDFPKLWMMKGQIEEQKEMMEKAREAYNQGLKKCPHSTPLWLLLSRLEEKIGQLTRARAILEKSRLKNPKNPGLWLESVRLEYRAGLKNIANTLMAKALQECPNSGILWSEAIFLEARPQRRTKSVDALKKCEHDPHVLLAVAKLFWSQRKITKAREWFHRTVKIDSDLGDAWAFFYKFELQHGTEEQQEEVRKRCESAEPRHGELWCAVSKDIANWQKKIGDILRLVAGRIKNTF
UniProt P10644, whole entry, looked up: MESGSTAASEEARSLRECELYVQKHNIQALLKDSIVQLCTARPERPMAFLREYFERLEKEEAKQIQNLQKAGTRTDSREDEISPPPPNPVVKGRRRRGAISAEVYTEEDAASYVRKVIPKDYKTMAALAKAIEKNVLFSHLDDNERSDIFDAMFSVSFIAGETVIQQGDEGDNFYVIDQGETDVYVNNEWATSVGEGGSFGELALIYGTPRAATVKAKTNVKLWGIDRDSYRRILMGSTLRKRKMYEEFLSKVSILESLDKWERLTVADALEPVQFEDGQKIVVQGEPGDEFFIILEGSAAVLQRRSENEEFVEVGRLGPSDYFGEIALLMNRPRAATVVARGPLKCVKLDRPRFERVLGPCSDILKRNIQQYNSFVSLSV
UniProt Q6P2P2: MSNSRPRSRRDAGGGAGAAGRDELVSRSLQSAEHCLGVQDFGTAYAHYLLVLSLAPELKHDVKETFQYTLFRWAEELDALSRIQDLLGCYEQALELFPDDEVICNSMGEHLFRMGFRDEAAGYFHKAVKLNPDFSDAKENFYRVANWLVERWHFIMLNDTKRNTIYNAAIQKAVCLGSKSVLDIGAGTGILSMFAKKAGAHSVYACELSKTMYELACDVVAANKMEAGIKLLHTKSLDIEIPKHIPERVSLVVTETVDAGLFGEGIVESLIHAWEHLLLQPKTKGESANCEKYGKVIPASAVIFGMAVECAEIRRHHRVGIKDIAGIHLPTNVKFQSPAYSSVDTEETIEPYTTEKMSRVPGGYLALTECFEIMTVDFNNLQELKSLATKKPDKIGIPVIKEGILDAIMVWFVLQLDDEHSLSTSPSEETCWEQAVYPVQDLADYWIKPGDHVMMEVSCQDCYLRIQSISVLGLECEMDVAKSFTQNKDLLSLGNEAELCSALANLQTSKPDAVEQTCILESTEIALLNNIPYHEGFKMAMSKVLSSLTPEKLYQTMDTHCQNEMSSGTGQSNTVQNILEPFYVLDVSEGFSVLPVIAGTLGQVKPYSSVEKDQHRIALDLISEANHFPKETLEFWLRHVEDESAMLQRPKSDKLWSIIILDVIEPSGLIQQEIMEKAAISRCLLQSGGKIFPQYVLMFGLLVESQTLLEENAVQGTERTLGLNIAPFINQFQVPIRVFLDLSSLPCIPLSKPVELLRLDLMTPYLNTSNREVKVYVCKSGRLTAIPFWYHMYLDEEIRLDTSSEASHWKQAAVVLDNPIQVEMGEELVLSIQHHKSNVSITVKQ
UniProt Q9UMS4: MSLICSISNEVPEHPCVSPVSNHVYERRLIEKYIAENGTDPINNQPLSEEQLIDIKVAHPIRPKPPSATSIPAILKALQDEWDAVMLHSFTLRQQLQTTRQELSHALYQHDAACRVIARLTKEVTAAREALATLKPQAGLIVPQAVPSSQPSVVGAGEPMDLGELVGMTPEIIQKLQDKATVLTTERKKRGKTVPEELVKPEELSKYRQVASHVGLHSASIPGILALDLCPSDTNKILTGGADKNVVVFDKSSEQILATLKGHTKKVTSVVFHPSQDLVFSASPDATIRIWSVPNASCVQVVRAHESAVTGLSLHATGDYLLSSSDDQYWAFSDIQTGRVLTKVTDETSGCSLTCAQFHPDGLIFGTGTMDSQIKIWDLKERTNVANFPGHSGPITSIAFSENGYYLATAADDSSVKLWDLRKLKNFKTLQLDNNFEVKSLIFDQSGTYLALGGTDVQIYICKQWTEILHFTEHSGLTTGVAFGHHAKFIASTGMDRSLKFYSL
UniProt P11908: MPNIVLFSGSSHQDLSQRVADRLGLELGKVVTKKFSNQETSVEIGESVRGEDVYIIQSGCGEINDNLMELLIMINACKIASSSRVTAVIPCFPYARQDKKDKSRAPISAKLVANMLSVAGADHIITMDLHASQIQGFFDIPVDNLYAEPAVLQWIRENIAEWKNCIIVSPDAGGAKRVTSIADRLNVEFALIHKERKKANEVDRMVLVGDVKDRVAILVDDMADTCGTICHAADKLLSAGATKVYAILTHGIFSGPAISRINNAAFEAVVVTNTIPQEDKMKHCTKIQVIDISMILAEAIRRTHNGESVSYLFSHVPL
UniProt Q04759: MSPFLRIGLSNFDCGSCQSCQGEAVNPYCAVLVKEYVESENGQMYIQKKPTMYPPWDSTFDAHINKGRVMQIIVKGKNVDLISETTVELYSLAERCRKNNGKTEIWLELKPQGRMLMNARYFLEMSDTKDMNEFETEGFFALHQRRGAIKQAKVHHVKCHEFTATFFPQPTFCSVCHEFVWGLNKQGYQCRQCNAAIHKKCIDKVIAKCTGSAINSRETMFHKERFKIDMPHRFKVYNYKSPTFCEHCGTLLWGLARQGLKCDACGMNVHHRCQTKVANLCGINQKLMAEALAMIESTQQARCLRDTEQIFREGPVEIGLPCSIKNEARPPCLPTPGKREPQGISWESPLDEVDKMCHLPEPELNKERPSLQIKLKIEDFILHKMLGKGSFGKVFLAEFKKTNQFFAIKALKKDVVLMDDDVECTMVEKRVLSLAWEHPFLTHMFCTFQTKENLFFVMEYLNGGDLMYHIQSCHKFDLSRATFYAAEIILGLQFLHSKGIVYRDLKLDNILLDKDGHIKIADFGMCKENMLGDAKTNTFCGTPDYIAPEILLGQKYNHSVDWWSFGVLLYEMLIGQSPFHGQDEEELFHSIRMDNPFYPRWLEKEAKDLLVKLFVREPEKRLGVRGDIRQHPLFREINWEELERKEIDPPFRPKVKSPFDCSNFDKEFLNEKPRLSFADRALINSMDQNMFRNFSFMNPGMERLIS
UniProt Q86TP1: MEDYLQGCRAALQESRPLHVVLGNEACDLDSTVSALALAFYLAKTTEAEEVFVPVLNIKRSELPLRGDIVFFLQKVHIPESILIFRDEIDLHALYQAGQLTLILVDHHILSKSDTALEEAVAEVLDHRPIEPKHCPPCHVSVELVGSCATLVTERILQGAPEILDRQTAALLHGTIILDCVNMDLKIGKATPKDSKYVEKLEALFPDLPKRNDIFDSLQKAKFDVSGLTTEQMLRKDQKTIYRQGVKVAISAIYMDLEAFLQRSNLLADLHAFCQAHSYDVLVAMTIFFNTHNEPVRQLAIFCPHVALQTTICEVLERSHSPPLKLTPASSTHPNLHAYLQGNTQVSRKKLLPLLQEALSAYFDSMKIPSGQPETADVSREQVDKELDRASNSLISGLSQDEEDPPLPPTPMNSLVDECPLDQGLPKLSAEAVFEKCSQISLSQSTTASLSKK

Compound: CC1Cc2ccccc2N1C(=O)C1CCCN(C1)C(=O)CCl (mixture of isomers) [TRIM25 ligand 11 (diastereomer mixture)]
Experiment: probe-labelled cysteine peptide fold change vs DMSO (competition) (log2 fold change); higher = less target engagement (more negative = stronger competition)
Settings: THP-1, incubation time: 4 h
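Note: competitive chemoproteomic profiling in live THP-1 cells with an iodoacetamide desthiobiotin (IA-DTB) probe, comparing probe-labelled peptide intensities in compound-treated cells against DMSO-treated controls.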

Target	probe-labelled cysteine peptide fold change (10 µM)	probe-labelled cysteine peptide fold change (50 µM)
PRPF4_O43172_441_CVYTIPAHQNLVTGVK (UniProt O43172)	0.114	0.00531
PRKCD_Q05655_175_NHEFIATFFGQPTFCSVCK (UniProt Q05655)	-0.0362	0.249
PRKCB_P05771_78+86_CHEFVTFSCPGADK (UniProt P05771)	-0.0197	-0.0639
PRKDC_P78527_2093_HECMAPLTALVK (UniProt P78527)	-0.0134	-0.111
PRKAA1_Q13131_313+321_FECSEEEVLSCLYNR (UniProt Q13131)	-0.161	-0.251
PRRC2B_Q5JSZ5_819_AQADFDSCISSQR (UniProt Q5JSZ5)	-0.0855	-0.0653
PRMT3_O60678_53_QQTPCLFCNR (UniProt O60678)	0.032	-0.0779
PRPF6_O94906_550_HTWMEDADSCVAHNALECAR (UniProt O94906)	0.0964	0.101
PRKD2_Q9BZL6_615_HPGIVNLECMFETPEK (UniProt Q9BZL6)	0.142	0.17
PRR14L_Q5THK1_228_DLSAGCGEFQEVDK (UniProt Q5THK1)	0.116	-0.072
PRKDC_P78527_3683_ECSPWMSDFK (UniProt P78527)	0.0403	-0.0803
PREX1_Q8TCU6_968+972_QAPLEPHPLCGLDFCPTNCHINLMEVSYPK (UniProt Q8TCU6)	-0.15	-0.341
PRKDC_P78527_1791_GSCVTQVGLLESVYEMFRK (UniProt P78527)	-0.179	-0.152
PRKDC_P78527_111_NTCTSVYTK (UniProt P78527)	-0.0678	-0.0327
PRKAR1A_P10644_18_ECELYVQK (UniProt P10644)	-0.0536	-0.116
PRPF6_O94906_913_HGELWCAVSK (UniProt O94906)	0.125	0.0547
PRKDC_P78527_1507_QCLPSLDLSCK (UniProt P78527)	0.045	0.0977
PRKDC_P78527_2435_VCLDIIYK (UniProt P78527)	-0.05	0.00192
PREX1_Q8TCU6_234_TVCSNINETK (UniProt Q8TCU6)	0.00592	0.0556
PRKDC_P78527_1791_RGSCVTQVGLLESVYEMFRK (UniProt P78527)	-0.289	-0.165
PREX1_Q8TCU6_1314_CTDTELQLR (UniProt Q8TCU6)	0.177	0.248

Target	probe-labelled cysteine peptide fold change (10 µM)	probe-labelled cysteine peptide fold change (50 µM)
PRKCB_P05771_386_DVVIQDDDVECTMVEK (UniProt P05771)	0.158	0.0628
PRKCI_P41743_108+117_DSELLIHVFPCVPERPGMPCPGEDK (UniProt P41743)	-0.204	-0.207
PRMT9_Q6P2P2_310_VIPASAVIFGMAVECAEIR (UniProt Q6P2P2)	0.371	-0.00639
PRMT3_O60678_264_VVLDVGCGTGILSMFAAK (UniProt O60678)	0.00438	-0.095
PRPF6_O94906_837_CEHDPHVLLAVAK (UniProt O94906)	-0.0144	-0.182
PREX1_Q8TCU6_1612_CIMQATDIMR (UniProt Q8TCU6)	0.0248	-0.186
PREX1_Q8TCU6_867_CHVLEK (UniProt Q8TCU6)	0.00857	0.183
PRPF19_Q9UMS4_298_IWSVPNASCVQVVR (UniProt Q9UMS4)	0.00818	0.0267
PRRC2A_P48634_437_GGPPCKPPAPEDEDEAWR (UniProt P48634)	-0.12	-0.301
PREX1_Q8TCU6_1221_LHGCLEHLFNQVDSINALLK (UniProt Q8TCU6)	0.11	0.0646
PRMT5_O14744_344_CLLDRVPEEEK (UniProt O14744)	-0.0494	-0.00756
PRMT9_Q6P2P2_476_IQSISVLGLECEMDVAK (UniProt Q6P2P2)	-0.0169	-0.0155
PREX2_Q70Z35_341_WFVCMAK (UniProt Q70Z35)	-0.0181	0.206
PRKDC_P78527_123_CKIPALDLLIK (UniProt P78527)	-0.544	-0.254
PRKDC_P78527_4061_LAGANPAVITCDELLLGHEK (UniProt P78527)	-0.0993	-0.0896
PRKCA_P17252_132_CDTCDMNVHK (UniProt P17252)	-0.0656	-0.048
PRMT7_Q9NVM4_368_QMRPVCDCQAHLLWNRPR (UniProt Q9NVM4)	-0.163	-0.0321
PRKDC_P78527_1176_WLLAHCGRPQTECR (UniProt P78527)	-0.0994	0.0666
PRPF8_Q6P2Q9_2116_FICISDLR (UniProt Q6P2Q9)	0.0375	0.149
PRKD2_Q9BZL6_180+188_CAFSIPNNCSGAR (UniProt Q9BZL6)	-0.156	-0.187
PRPF8_Q6P2Q9_2116_KFICISDLR (UniProt Q6P2Q9)	-0.00497	0.0232

Target	probe-labelled cysteine peptide fold change (10 µM)	probe-labelled cysteine peptide fold change (50 µM)
PRKCD_Q05655_172+175_NHEFIATFFGQPTFCSVCK (UniProt Q05655)	-0.0205	-0.0302
PRPF8_Q6P2Q9_2223_TIIITCSFTPGSCTLTAYK (UniProt Q6P2Q9)	0.0406	0.404
PREX1_Q8TCU6_572_EEAVALGVGLCNNGFMHHVLEK (UniProt Q8TCU6)	0.0907	-0.0123
PRMT9_Q6P2P2_206_AGAHSVYACELSK (UniProt Q6P2P2)	0.206	0.0703
PRPF4_O43172_441_RCVYTIPAHQNLVTGVK (UniProt O43172)	-0.103	0.0371
PRMT1_Q99873_250_QLVTNACLIK (UniProt Q99873)	0.0519	0.0423
PRPF19_Q9UMS4_114_QELSHALYQHDAACR (UniProt Q9UMS4)	-0.00523	0.0622
PRKD2_Q9BZL6_217_LGTSESLPCTAEELSR (UniProt Q9BZL6)	0.0353	-0.104
PRMT9_Q6P2P2_175_AVCLGSK (UniProt Q6P2P2)	0.061	0.0264
PRKDC_P78527_1399_VLVQTLCEPASIGFNIGDVQVMAHLPDVCVNLMK (UniProt P78527)	-0.19	-0.257
PRKAR1A_P10644_39_DSIVQLCTARPERPMAFLR (UniProt P10644)	-0.134	-0.149
PRKAR1A_P10644_362_VLGPCSDILK (UniProt P10644)	-0.0417	-0.0498
PRPS2_P11908_226+230_DRVAILVDDMADTCGTICHAADK (UniProt P11908)	-0.14	0.32
PRKAR2A_P13861_134_LQEACK (UniProt P13861)	-0.0221	-0.157
PRKCB_P05771_78_CHEFVTFSCPGADK (UniProt P05771)	0.126	0.232
PRKAR1A_P10644_39_DSIVQLCTARPER (UniProt P10644)	-0.11	-0.000615
PRKDC_P78527_1742_FNNYVDCMKK (UniProt P78527)	-0.327	-0.152
PRKDC_P78527_3014_SLEYCSTASIDSENPPDLNK (UniProt P78527)	-0.0983	-0.0689
PREX1_Q8TCU6_836_LSLCEDSPMVTLTVDNVHLEHGVVYEYVSTAGVR (UniProt Q8TCU6)	0.0685	-0.0133
PRPF6_O94906_807_ALQECPNSGILWSEAIFLEAR (UniProt O94906)	0.0338	0.255
PRKAA1_Q13131_425_SQSRPNDIMAEVCR (UniProt Q13131)	-0.101	-0.0314

Target	probe-labelled cysteine peptide fold change (10 µM)	probe-labelled cysteine peptide fold change (50 µM)
PRKDC_P78527_1127+1135_SLGTIQQCCDAIDHLCR (UniProt P78527)	-0.162	-0.178
PRKDC_P78527_2469_ELLNPVVEFVSHPSTTCR (UniProt P78527)	0.149	-0.032
PRKCQ_Q04759_281_VANLCGINQK (UniProt Q04759)	-0.0428	-0.126
PRKDC_P78527_1127_SLGTIQQCCDAIDHLCR (UniProt P78527)	0.0972	-0.138
PRKDC_P78527_1128_SLGTIQQCCDAIDHLCR (UniProt P78527)	0.128	0.0804
PRUNE1_Q86TP1_180_QTAALLHGTIILDCVNMDLK (UniProt Q86TP1)	0.326	0.166
PRPS2_P11908_226+230_VAILVDDMADTCGTICHAADK (UniProt P11908)	0.0546	0.237
PRPF3_O43395_651_QCPTENMAR (UniProt O43395)	-0.219	-0.185
PRPF6_O94906_837_KCEHDPHVLLAVAK (UniProt O94906)	-0.0261	0.0306
PRPF6_O94906_513_EQWIQDAEECDR (UniProt O94906)	0.35	0.00987
PRPF4_O43172_431_EIYGINFSPNGYHIATGSGDNTCK (UniProt O43172)	0.135	-0.00403
PRPS2_P11908_230_DRVAILVDDMADTCGTICHAADK (UniProt P11908)	-0.0227	0.215
PRUNE1_Q86TP1_303+313_QLAIFCPHVALQTTICEVLER (UniProt Q86TP1)	0.352	-0.178
PRKCB_P05771_409_VLALPGKPPFLTQLHSCFQTMDR (UniProt P05771)	0.0299	0.0865
PRPS2_P11908_230_VAILVDDMADTCGTICHAADK (UniProt P11908)	0.0135	0.175
PRKDC_P78527_1364_DLCNTHLMR (UniProt P78527)	0.157	0.159
PRKDC_P78527_478_NCISTVVHQGLIR (UniProt P78527)	0.0438	0.143
PRKDC_P78527_4061_KLAGANPAVITCDELLLGHEK (UniProt P78527)	-0.131	-0.00312
PRKCSH_P14314_77_DGSDEPGTAACPNGSFHCTNTGYK (UniProt P14314)	0.111	0.0753
PRG2_P13727_201_GGHCVALCTR (UniProt P13727)	0.143	0.119

A different layout for part of the listing above.
PRKDC_P78527_1127+1135_SLGTIQQCCDAIDHLCR (UniProt P78527)
  probe-labelled cysteine peptide fold change (10 µM): -0.162; probe-labelled cysteine peptide fold change (50 µM): -0.178
PRKDC_P78527_2469_ELLNPVVEFVSHPSTTCR (UniProt P78527)
  probe-labelled cysteine peptide fold change (10 µM): 0.149; probe-labelled cysteine peptide fold change (50 µM): -0.032
PRKCQ_Q04759_281_VANLCGINQK (UniProt Q04759)
  probe-labelled cysteine peptide fold change (10 µM): -0.0428; probe-labelled cysteine peptide fold change (50 µM): -0.126
